Data published in PMC5665887.

Legend:
[1] = target: T1, FLAG-tagged evectin-2 (WT) (UniProt Q96CS7); test: co-IP; FLAG-tagged evectin-2 (WT, PPPA or ΔPPPY) expressed in COS-1 cells for 24 h; lysate in 25 mM HEPES-KOH pH 7.33, 150 mM NaCl, 1 mM EDTA, 1% Triton X-100; anti-FLAG M2 affinity gel, 2 h at 4 °C; blotted for endogenous Itch, WWP1, WWP2
T1 sequence: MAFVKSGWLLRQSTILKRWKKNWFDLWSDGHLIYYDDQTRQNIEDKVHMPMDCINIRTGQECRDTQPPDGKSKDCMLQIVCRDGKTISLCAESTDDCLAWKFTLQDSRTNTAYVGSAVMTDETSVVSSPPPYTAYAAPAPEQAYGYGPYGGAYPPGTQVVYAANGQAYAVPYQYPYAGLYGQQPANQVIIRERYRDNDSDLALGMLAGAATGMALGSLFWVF

[2] = target: T2, FLAG-tagged evectin-2 ΔPPPY mutant (UniProt Q96CS7); test: as above
T2 sequence: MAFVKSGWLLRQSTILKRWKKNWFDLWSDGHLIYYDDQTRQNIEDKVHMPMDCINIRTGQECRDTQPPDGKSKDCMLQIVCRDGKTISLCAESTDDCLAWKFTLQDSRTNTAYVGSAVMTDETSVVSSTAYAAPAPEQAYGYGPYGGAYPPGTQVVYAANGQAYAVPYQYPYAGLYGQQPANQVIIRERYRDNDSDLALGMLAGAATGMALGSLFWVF

Row | binding [1] | binding [2] | Substance
1 | binds | no binding | WWP1 (endogenous) (enzyme)
2 | binds | no binding | Itch (endogenous) (enzyme)
3 | binds | no binding | WWP2 (endogenous) (enzyme)

Results are given in words; binding and its absence hold for the method and conditions named. In cells and extracts the contact can be indirect. For part of these data: Binding can be weak; no strength is given. Tags and fused reporters may be left off the sequences shown.
